From PMC5539422

Target: T1, L7Ae with a C-terminal Flag-hemagglutinin (Flag-HA) tag (Sulfolobus acidocaldarius) (UniProt Q4J8P1)
T1 sequence: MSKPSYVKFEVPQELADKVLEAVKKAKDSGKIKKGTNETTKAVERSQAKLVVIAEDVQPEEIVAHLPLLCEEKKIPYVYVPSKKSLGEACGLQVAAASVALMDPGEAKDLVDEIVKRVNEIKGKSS
Experiment: affinity purification with mass spectrometry; two consecutive immunoprecipitations (Flag-IP, then HA-IP) of genomically Flag-HA-tagged L7Ae from S. acidocaldarius lysate; 100 mM MOPS pH 6.5, 300 mM NaCl, 10% glycerol; 4°C; eluted with 8 M urea; SDS-PAGE, co-isolated proteins identified via mass spectrometry; mock purification of the untagged strain as control

B1: fibrillarin (protein, UniProt Q9P9M0 1-231)
chain: MSEIEKVTKTQFDNVYECIFNDGTTRLCTKNLSPGHNVYGERLIKYGGVEYREWNAFRSKLAGAIVKGLKYNPIVKGSKILYLGAASGTTPSHISDIVELQGKVYSVEFSPRVIRELLLVAQYRPNMFPILADARFPQYYKSLVENVDIVYVDIAQPNETEIAMYNARFFLKKNGYMMIAIKSRSIDVTKDPREIYNAEAKKLEDAGFDIREVLELDPYDKDHAMIVVKYK
binding: binds

These are yes or no findings as the source states them, for the method shown. In cells and extracts the contact can be indirect. Here binding means that the protein was enriched with, or labelled near, the bait; the list need not be complete. Where a sequence is shown, tags or fusion partners need not be part of it.
